In the supplement of paper PMC12823440, “Inhibitors supercharge kinase turnover through native proteolytic circuits” (Nature, 2025):
Where a name gives a salt, the structure may show the parent alone. This is one part of the list. Hit calls seldom repeat between salt and free forms of one compound.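 In K562 cells expressing nanoluciferase-fused kinases, luminescence was recorded at 4 h intervals between 2 and 18 h, normalized as percent of control with DMSO at 100% and a positive control at 0%. A significant (2 sigma) signal drop marks a time point as decreased. The authors' rule for a hit is not shown and takes in more than the number of time points.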

By UniProt entry, the sequences of proteins in these tests, tags left out. Where a name states a change or a piece, a line headed by the entry shows the natural chain unless it says otherwise.
UniProt P48729: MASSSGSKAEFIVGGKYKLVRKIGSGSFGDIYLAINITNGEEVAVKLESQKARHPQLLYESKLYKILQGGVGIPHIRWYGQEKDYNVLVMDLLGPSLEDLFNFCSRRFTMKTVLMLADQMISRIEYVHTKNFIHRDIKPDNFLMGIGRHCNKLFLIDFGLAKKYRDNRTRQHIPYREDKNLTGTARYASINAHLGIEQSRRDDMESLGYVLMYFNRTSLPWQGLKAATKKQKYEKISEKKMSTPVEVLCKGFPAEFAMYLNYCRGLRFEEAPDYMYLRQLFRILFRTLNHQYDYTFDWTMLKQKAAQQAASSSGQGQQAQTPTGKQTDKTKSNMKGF
UniProt P48730: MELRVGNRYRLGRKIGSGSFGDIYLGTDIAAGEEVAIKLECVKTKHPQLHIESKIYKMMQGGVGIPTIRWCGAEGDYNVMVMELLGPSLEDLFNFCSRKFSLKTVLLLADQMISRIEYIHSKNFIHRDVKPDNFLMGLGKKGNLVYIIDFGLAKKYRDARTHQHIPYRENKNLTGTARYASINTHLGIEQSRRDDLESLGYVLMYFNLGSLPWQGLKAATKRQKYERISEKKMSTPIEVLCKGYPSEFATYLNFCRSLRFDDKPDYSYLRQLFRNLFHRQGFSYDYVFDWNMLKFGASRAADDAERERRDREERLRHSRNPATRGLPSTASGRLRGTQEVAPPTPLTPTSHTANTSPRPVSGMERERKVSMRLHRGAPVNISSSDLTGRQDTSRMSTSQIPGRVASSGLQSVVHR
UniProt Q08345: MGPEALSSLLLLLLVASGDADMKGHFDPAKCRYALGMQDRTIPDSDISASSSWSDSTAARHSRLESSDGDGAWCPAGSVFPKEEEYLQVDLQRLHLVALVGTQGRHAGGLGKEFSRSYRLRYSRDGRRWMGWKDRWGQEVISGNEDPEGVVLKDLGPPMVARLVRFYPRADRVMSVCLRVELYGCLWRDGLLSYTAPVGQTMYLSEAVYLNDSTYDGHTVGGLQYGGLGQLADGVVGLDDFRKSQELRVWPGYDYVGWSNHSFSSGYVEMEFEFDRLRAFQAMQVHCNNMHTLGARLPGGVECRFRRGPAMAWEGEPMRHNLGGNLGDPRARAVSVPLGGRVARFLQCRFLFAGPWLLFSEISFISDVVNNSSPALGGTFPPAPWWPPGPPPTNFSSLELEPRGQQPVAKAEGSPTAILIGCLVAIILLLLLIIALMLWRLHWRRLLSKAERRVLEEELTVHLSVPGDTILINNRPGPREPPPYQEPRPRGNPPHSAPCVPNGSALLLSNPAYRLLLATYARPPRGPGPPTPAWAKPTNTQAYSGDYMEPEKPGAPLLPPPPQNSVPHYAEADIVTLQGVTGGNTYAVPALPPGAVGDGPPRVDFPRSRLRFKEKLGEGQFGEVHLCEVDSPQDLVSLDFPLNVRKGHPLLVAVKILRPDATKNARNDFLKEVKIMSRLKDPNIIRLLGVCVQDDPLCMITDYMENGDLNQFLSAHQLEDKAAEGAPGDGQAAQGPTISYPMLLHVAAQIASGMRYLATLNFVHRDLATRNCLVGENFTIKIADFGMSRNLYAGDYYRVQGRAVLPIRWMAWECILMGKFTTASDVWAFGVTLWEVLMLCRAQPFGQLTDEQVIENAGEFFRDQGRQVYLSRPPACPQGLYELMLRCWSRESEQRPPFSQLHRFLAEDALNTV
UniProt Q9Y463, whole entry, looked up: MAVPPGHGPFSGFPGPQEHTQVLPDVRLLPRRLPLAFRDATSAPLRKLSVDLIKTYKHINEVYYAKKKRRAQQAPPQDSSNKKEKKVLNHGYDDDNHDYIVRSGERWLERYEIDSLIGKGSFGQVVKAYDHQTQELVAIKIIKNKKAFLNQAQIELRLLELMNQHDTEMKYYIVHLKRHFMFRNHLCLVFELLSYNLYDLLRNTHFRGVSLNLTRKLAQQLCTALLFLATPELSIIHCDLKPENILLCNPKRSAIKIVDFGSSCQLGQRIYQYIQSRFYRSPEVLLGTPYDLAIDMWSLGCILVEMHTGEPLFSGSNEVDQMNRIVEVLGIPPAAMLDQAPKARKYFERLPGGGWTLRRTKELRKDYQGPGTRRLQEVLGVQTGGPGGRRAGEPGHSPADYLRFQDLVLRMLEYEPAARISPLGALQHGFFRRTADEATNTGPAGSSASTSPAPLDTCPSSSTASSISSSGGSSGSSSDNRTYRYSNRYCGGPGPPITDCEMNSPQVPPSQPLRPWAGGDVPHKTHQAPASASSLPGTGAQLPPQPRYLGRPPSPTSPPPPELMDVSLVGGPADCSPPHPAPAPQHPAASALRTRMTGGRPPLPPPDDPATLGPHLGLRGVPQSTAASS
UniProt Q92630: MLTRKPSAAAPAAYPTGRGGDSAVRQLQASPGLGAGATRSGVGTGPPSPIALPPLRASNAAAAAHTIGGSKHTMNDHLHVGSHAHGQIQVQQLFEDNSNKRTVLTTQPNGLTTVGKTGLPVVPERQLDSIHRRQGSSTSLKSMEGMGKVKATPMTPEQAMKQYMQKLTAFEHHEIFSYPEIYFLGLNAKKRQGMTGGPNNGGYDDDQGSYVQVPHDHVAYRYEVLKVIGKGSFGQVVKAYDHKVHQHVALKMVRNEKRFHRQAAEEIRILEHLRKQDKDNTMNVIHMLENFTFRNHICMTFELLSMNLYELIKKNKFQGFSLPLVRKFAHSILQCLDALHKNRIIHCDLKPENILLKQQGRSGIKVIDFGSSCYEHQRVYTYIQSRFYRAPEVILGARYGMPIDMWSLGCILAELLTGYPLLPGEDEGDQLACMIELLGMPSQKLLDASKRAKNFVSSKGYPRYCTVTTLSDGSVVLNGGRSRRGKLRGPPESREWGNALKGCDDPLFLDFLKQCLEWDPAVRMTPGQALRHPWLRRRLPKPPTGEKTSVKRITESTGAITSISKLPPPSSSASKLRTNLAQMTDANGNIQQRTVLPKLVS
UniProt P21860, whole entry: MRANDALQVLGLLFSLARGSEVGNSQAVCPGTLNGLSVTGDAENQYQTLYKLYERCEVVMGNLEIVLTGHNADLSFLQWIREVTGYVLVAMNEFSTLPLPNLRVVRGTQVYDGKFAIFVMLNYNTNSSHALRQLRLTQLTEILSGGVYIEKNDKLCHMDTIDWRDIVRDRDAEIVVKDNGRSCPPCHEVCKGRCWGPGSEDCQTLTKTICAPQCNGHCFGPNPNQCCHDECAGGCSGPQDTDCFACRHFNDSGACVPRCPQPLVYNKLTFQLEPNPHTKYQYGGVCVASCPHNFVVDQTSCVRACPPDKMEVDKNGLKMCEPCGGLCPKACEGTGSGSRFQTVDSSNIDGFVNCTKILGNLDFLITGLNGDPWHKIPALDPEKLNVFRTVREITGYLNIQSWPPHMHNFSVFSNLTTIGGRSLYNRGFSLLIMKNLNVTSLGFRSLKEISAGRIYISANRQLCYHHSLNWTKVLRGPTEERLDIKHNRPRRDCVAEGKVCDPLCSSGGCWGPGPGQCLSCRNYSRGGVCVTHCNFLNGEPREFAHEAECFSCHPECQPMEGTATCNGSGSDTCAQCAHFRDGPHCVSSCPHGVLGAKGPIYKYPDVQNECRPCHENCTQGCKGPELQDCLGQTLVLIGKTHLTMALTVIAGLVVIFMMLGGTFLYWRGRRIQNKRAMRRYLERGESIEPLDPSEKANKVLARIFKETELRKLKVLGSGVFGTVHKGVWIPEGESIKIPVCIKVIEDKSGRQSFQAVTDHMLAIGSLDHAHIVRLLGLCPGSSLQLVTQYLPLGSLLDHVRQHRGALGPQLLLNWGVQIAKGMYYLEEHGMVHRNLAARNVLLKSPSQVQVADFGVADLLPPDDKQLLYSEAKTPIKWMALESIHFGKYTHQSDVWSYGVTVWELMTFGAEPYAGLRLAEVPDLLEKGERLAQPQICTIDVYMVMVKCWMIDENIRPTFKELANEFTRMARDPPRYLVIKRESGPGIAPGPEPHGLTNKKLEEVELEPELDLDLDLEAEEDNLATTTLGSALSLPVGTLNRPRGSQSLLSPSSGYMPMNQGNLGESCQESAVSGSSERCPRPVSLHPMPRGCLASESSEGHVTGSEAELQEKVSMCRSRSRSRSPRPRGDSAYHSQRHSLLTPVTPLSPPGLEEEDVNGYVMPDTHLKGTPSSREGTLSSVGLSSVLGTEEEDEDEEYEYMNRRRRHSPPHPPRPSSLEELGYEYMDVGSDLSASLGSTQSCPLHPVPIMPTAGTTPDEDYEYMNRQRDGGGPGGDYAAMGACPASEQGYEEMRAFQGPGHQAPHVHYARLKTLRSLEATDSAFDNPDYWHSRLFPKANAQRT
UniProt Q15303, whole entry R711C: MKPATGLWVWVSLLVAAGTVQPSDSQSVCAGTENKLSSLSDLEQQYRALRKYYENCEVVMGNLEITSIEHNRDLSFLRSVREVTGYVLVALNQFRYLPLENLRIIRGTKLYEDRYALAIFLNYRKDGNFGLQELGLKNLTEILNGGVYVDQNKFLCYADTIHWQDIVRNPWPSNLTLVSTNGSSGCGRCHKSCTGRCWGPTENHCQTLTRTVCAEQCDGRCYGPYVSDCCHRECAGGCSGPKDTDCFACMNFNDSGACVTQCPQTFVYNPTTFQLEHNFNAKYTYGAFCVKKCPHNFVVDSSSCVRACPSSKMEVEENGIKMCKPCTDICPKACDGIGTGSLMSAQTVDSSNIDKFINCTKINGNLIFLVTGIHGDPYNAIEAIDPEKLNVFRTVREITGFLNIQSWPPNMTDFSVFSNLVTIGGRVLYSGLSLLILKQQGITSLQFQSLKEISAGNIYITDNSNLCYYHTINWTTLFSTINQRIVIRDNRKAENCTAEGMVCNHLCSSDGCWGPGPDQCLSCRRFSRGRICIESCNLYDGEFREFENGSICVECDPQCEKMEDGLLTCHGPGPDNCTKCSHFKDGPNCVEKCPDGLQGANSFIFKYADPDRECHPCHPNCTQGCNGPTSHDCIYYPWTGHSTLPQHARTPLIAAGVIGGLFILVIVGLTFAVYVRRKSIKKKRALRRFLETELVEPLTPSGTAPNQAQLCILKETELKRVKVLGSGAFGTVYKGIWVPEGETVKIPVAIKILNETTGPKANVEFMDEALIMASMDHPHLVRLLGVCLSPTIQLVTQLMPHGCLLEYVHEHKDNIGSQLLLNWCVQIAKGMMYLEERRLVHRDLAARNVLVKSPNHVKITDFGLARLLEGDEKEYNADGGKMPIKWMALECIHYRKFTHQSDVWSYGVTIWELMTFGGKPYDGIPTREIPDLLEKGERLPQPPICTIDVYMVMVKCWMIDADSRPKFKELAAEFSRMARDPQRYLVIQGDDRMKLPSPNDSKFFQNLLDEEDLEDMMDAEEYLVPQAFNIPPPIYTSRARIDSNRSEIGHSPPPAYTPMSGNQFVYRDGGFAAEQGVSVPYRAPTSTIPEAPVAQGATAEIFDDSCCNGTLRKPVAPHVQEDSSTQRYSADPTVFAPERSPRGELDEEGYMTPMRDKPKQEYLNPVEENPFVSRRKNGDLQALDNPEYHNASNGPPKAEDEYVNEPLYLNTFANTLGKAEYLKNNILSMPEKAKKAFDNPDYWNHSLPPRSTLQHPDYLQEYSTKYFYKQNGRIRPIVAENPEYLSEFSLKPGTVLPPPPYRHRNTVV
UniProt O75460: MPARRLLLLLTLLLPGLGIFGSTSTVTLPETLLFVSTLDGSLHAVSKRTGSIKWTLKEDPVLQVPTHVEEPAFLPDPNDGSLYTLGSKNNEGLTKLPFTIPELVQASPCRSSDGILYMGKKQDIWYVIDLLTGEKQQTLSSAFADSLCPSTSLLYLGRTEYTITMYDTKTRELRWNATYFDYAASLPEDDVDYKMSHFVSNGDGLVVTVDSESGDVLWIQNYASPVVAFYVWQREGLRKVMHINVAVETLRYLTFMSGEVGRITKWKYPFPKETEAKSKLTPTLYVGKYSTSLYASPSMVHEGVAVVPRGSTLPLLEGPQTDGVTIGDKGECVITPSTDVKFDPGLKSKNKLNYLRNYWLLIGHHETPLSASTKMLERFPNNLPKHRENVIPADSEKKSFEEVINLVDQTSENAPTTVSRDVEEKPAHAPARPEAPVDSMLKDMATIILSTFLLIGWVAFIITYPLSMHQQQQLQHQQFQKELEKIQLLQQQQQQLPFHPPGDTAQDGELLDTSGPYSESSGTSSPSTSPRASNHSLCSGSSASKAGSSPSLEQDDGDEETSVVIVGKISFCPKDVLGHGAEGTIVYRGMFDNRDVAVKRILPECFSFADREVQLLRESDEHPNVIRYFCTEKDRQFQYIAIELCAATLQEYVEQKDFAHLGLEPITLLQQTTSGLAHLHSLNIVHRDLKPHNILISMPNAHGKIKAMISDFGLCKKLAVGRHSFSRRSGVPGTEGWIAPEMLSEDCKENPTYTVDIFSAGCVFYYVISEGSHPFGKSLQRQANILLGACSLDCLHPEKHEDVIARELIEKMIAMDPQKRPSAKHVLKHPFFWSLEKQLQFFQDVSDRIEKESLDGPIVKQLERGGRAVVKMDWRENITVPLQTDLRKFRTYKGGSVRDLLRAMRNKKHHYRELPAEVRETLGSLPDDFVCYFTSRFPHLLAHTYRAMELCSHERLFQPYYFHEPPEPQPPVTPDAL

Legend:
Test in all cases: number of time points (of 5) at which kinase-Nluc abundance scored as decreased, DMSO-normalised (count); higher = more persistent destabilization
Conditions in all cases: K562; 2-18 h
CSNK1A1 = CSNK1A1 (UniProt P48729)
CSNK1D = CSNK1D (UniProt P48730)
DDR1 = DDR1 (UniProt Q08345)
DYRK1B = DYRK1B (UniProt Q9Y463)
DYRK2 = DYRK2 (UniProt Q92630)
EGFR = EGFR (UniProt P00533)
EGFR_G719S = EGFR_G719S (UniProt P00533)
EGFR_G719S_T790M = EGFR_G719S_T790M (UniProt P00533)
EGFR_L718V = EGFR_L718V (UniProt P00533)
EGFR_L858R = EGFR_L858R (UniProt P00533)
EGFR_L861Q = EGFR_L861Q (UniProt P00533)
EGFR_T790M = EGFR_T790M (UniProt P00533)
EPHA2 = EPHA2 (UniProt P29317)
ERBB3 = ERBB3 (UniProt P21860)
[1] = biological target: ERBB4_R711C (clone: ERBB4_mut) (UniProt Q15303)
ERN1 = ERN1 (UniProt O75460)
FGFR1 = FGFR1 (UniProt P11362)
FGFR2 = FGFR2 (UniProt P21802)
FGFR3 = FGFR3 (UniProt P22607)
FGR = FGR (UniProt P09769)

Measured: number of time points

O=C1OC(COc2ccccc2[N+](=O)[O-])CC1Cc1ccccc1 (stereo not given) (10 µM)
0: CSNK1A1 | CSNK1D | DDR1 | DYRK1B | DYRK2 | EGFR | EGFR_G719S | EGFR_G719S_T790M | EGFR_L718V | EGFR_L858R | EGFR_L861Q | EGFR_T790M | EPHA2 | ERBB3 | [1] | ERN1 | FGFR1 | FGFR2 | FGFR3 | FGR

S=C(NCc1ccc2c(c1)OCO2)N1CCN(c2ncnc3c2oc2ccccc23)CC1 [Amuvatinib] (2.5 µM)
0: CSNK1A1 | CSNK1D | DDR1 | DYRK1B | DYRK2 | EGFR | EGFR_G719S | EGFR_G719S_T790M | EGFR_L718V | EGFR_L858R | EGFR_L861Q | EGFR_T790M | EPHA2 | ERBB3 | [1] | ERN1 | FGFR1 | FGFR2 | FGFR3 | FGR

CC(C)Cn1ncc2cc(Oc3ccc(F)cc3F)c(C(=O)NCCN(C)C)cc21 [p38α inhibitor 1] (10 µM)
0: CSNK1A1 | CSNK1D | DDR1 | DYRK1B | DYRK2 | EGFR | EGFR_G719S | EGFR_G719S_T790M | EGFR_L718V | EGFR_L858R | EGFR_L861Q | EGFR_T790M | EPHA2 | ERBB3 | [1] | ERN1 | FGFR1 | FGFR2 | FGFR3 | FGR

Cc1cc(N2CCOCC2)ccc1Nc1nc(NC2CCCCC2)c2[nH]cnc2n1 (10 µM)
0: CSNK1A1 | CSNK1D | DDR1 | DYRK1B | DYRK2 | EGFR | EGFR_G719S | EGFR_G719S_T790M | EGFR_L718V | EGFR_L858R | EGFR_L861Q | EGFR_T790M | EPHA2 | ERBB3 | [1] | ERN1 | FGFR1 | FGFR2 | FGFR3 | FGR

COc1cc2c(cc1OC)[C@@H]1C(=O)c3ccc4c(c3O[C@@H]1CO2)C=CC(C)(C)O4 [Deguelin] (10 µM)
1: [1]
0: CSNK1A1 | CSNK1D | DDR1 | DYRK1B | DYRK2 | EGFR | EGFR_G719S | EGFR_G719S_T790M | EGFR_L718V | EGFR_L858R | EGFR_L861Q | EGFR_T790M | EPHA2 | ERBB3 | ERN1 | FGFR1 | FGFR2 | FGFR3 | FGR

O=C(NCc1ccn[nH]1)c1cc([C@@H]2CCNC[C@H]2COc2ccc3c(c2)OCO3)ccc1F [GRK2-IN-1 (hydrochloride)] (10 µM)
0: CSNK1A1 | CSNK1D | DDR1 | DYRK1B | DYRK2 | EGFR | EGFR_G719S | EGFR_G719S_T790M | EGFR_L718V | EGFR_L858R | EGFR_L861Q | EGFR_T790M | EPHA2 | ERBB3 | [1] | ERN1 | FGFR1 | FGFR2 | FGFR3 | FGR

CCc1c(C(=O)NNC(=O)[C@H](O)c2cc(F)cc(F)c2)ccc(O)c1C (10 µM)
0: CSNK1A1 | CSNK1D | DDR1 | DYRK1B | DYRK2 | EGFR | EGFR_G719S | EGFR_G719S_T790M | EGFR_L718V | EGFR_L858R | EGFR_L861Q | EGFR_T790M | EPHA2 | ERBB3 | [1] | ERN1 | FGFR1 | FGFR2 | FGFR3 | FGR

CO[C@@H]1[C@H](N(C)C(=O)c2ccccc2)C[C@H]2O[C@]1(C)n1c3ccccc3c3c4c(c5c6ccccc6n2c5c31)C(=O)NC4 [Midostaurin] (2.5 µM)
1: DDR1 | DYRK2 | ERBB3
2: EGFR_L861Q | FGFR1
0: CSNK1A1 | CSNK1D | DYRK1B | EGFR | EGFR_G719S | EGFR_G719S_T790M | EGFR_L718V | EGFR_L858R | EGFR_T790M | EPHA2 | [1] | ERN1 | FGFR2 | FGFR3 | FGR

O=[N+]([O-])c1ccc(-c2nc(-c3ccc(F)cc3)c(-c3ccncc3)[nH]2)cc1 (10 µM)
0: CSNK1D | DDR1 | DYRK1B | DYRK2 | EGFR_G719S | EGFR_G719S_T790M | EGFR_L718V | EGFR_L858R | EGFR_L861Q | EGFR_T790M | EPHA2 | ERBB3 | [1] | ERN1 | FGFR1 | FGFR2 | FGFR3 | FGR
5: CSNK1A1
3: EGFR

Cc1cccc(-c2nn3c(c2-c2ccnc4ccc(C(N)=O)cc24)CCC3)n1 [Galunisertib] (10 µM)
0: CSNK1A1 | CSNK1D | DDR1 | DYRK1B | DYRK2 | EGFR | EGFR_G719S | EGFR_G719S_T790M | EGFR_L718V | EGFR_L858R | EGFR_L861Q | EGFR_T790M | EPHA2 | ERBB3 | [1] | ERN1 | FGFR1 | FGFR2 | FGFR3 | FGR

Cc1ccc(NC(=O)N2CCN(c3nc(N)nc4sc(-c5cccnc5)nc34)CC2)cc1 [PI4KIII beta inhibitor 3] (10 µM)
0: CSNK1A1 | CSNK1D | DDR1 | DYRK1B | DYRK2 | EGFR | EGFR_G719S | EGFR_G719S_T790M | EGFR_L718V | EGFR_L858R | EGFR_L861Q | EGFR_T790M | EPHA2 | ERBB3 | [1] | ERN1 | FGFR1 | FGFR2 | FGFR3 | FGR

COc1cccc(-c2cc(=O)c3ccccc3o2)c1N (10 µM)
0: CSNK1A1 | CSNK1D | DDR1 | DYRK1B | DYRK2 | EGFR | EGFR_G719S | EGFR_G719S_T790M | EGFR_L718V | EGFR_L858R | EGFR_L861Q | EGFR_T790M | EPHA2 | ERBB3 | [1] | ERN1 | FGFR1 | FGFR2 | FGFR3 | FGR

COc1c(O)cc(O)c2c(=O)cc(-c3ccccc3)oc12 [Wogonin] (10 µM)
0: CSNK1A1 | CSNK1D | DDR1 | DYRK1B | DYRK2 | EGFR | EGFR_G719S | EGFR_G719S_T790M | EGFR_L718V | EGFR_L858R | EGFR_L861Q | EGFR_T790M | EPHA2 | ERBB3 | [1] | ERN1 | FGFR1 | FGFR2 | FGFR3 | FGR

COCCNc1cc(NC(=O)N2CCCc3cc(CN4CCOCC4=O)c(C=O)nc32)ncc1C#N (10 µM)
0: CSNK1A1 | CSNK1D | DDR1 | DYRK1B | DYRK2 | EGFR | EGFR_G719S | EGFR_G719S_T790M | EGFR_L718V | EGFR_L858R | EGFR_L861Q | EGFR_T790M | EPHA2 | ERBB3 | [1] | ERN1 | FGFR1 | FGFR2 | FGFR3 | FGR

O=C(O)/C=C(\CCc1ccc(Cl)cc1)c1ccccc1 (10 µM)
0: CSNK1A1 | CSNK1D | DDR1 | DYRK1B | DYRK2 | EGFR | EGFR_G719S | EGFR_G719S_T790M | EGFR_L718V | EGFR_L858R | EGFR_L861Q | EGFR_T790M | EPHA2 | ERBB3 | [1] | ERN1 | FGFR1 | FGFR2 | FGFR3 | FGR

COc1cc(N2CCC(N3CCN(C)CC3)CC2)ccc1Nc1ncnc(Nc2ccccc2S(=O)(=O)C(C)C)n1 (10 µM)
0: CSNK1A1 | CSNK1D | DDR1 | DYRK1B | DYRK2 | EGFR | EGFR_G719S | EGFR_G719S_T790M | EGFR_L718V | EGFR_L858R | EGFR_L861Q | EGFR_T790M | EPHA2 | ERBB3 | [1] | ERN1 | FGFR1 | FGFR2 | FGFR3 | FGR

Nc1nccc(Oc2ccc3c(C(=O)Nc4cccc(C(F)(F)F)c4)cccc3c2)n1 (10 µM)
2: [1]
3: ERBB3
0: CSNK1A1 | CSNK1D | DDR1 | EGFR | EGFR_G719S | EGFR_G719S_T790M | EGFR_L718V | EGFR_L858R | EGFR_L861Q | EGFR_T790M | ERN1 | FGFR1 | FGFR2 | FGFR3 | FGR
4: DYRK2
1: DYRK1B | EPHA2

Reprinted at random: two entries already listed.
O=C(O)/C=C(\CCc1ccc(Cl)cc1)c1ccccc1 (10 µM)
0: CSNK1A1 | CSNK1D | DDR1 | DYRK1B | DYRK2 | EGFR | EGFR_G719S | EGFR_G719S_T790M | EGFR_L718V | EGFR_L858R | EGFR_L861Q | EGFR_T790M | EPHA2 | ERBB3 | [1] | ERN1 | FGFR1 | FGFR2 | FGFR3 | FGR

COc1cc(N2CCC(N3CCN(C)CC3)CC2)ccc1Nc1ncnc(Nc2ccccc2S(=O)(=O)C(C)C)n1 (10 µM)
0: CSNK1A1 | CSNK1D | DDR1 | DYRK1B | DYRK2 | EGFR | EGFR_G719S | EGFR_G719S_T790M | EGFR_L718V | EGFR_L858R | EGFR_L861Q | EGFR_T790M | EPHA2 | ERBB3 | [1] | ERN1 | FGFR1 | FGFR2 | FGFR3 | FGR
